PubChem BioAssay AID1508588, Peter MacCallum Cancer Centre | 2020
Here is a random part of about 18,000 reagents. Of all reagents, 790 (4.4%) are marked active. 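Calls rest on a combination of fold-change classes in drug and vehicle arms, not all shown here.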 Entries without a mark were called inactive.

- Assay: 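Knock-downs boosting vemurafenib effects on melanoma cell growth or lactate release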 (primary screen)
- System: human WM266.4 melanoma cells (BRAF V600 mutant)
- Reagents: siRNA pool against human genes, 40 nM
- Timing: 96 h from transfection to read-out
- Conditions: vemurafenib 300 nM (about IC25), added 48 h after transfection, for 48 h; comparison arm got DMSO vehicle only
- Measured: 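Cell gain (DAPI nuclei at end minus before drug, mean of two replicates) and medium lactate by absorbance per cell, both as ratio to non-targeting siRNA, also grouped into fold-change classes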
- Reading the numbers: cell gain with vemurafenib: higher = more cell gain than with non-targeting siRNA; lactate per cell with vemurafenib: higher = more lactate made per cell
- Call rule: 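Enhancement is called by pairing each knock-down's vehicle-arm and drug-arm fold-change classes for viability or glycolysis; which class combinations qualify is not given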
- Calls: active = enhances vemurafenib effect; inactive = no enhancement seen

Target gene | cell gain with vemurafenib | lactate per cell with vemurafenib
PSMD9 (proteasome 26S subunit, non-ATPase 9) | 0.05 | 0.89
LYN (LYN proto-oncogene, Src family tyrosine kinase) | 0.52 | 1.73
CES2 (carboxylesterase 2) | 0.36 | 1.73
MORF4L1 (mortality factor 4 like 1) | 0.28 | 0.4
CELF3 (CUGBP Elav-like family member 3) | 0.59 | 1.19
TAOK3 (TAO kinase 3) | 0.42 | 0.83
OR6K6 (olfactory receptor family 6 subfamily K member 6) | 0.65 | 0.24
OR2A12 (olfactory receptor family 2 subfamily A member 12) | 1.06 | 0.43
OR4D5 (olfactory receptor family 4 subfamily D member 5) | 0.55 | 1.8
IGSF3 (immunoglobulin superfamily member 3) | 0.72 | 1.15
SPTY2D1 (SPT2 chromatin protein domain containing 1) | 0.66 | 0.52
CLRN1 (clarin 1) | 0.44 | 1.46
PRPF4 (pre-mRNA splicing tri-snRNP complex factor PRPF4) | 0.12 | 0.7
PPP1R14A (protein phosphatase 1 regulatory inhibitor subunit 14A) | 0.73 | 0.83
MARCHF4 (membrane associated ring-CH-type finger 4) | 1.1 | 0.83
S100A14 (S100 calcium binding protein A14) | 0.45 | 0.96
RSPO4 (R-spondin 4) | 0.11 | 0.82
HORMAD2 (HORMA domain containing 2) | 0.6 | 0.52
IRF3 (interferon regulatory factor 3) | 0.48 | 1.94
BACC1 (BPTF associated chromatin complex component 1) | 0.54 | 1.48
ZNF571 (zinc finger protein 571) | 0.62 | 0.26

Already shown: entries from further up.
Target gene | cell gain with vemurafenib | lactate per cell with vemurafenib
CELF3 (CUGBP Elav-like family member 3) | 0.59 | 1.19
TAOK3 (TAO kinase 3) | 0.42 | 0.83
OR6K6 (olfactory receptor family 6 subfamily K member 6) | 0.65 | 0.24
OR2A12 (olfactory receptor family 2 subfamily A member 12) | 1.06 | 0.43
OR4D5 (olfactory receptor family 4 subfamily D member 5) | 0.55 | 1.8

Further records follow:
Target gene | cell gain with vemurafenib | lactate per cell with vemurafenib
STIL (STIL centriolar assembly protein) | 0.6 | 2
ALB (albumin) | 0.84 | 0.63
CCNI2 (cyclin I family member 2) | 0.41 | 1.21
YWHAB | 0.82 | 0.42
PCDHA10 (protocadherin alpha 10) | 0.91 | 0.47
ZNF35 (zinc finger protein 35) | 0.56 | 0.6
SEC13 (SEC13 homolog, nuclear pore and COPII component) | 0.15 | 1.04
RASD2 (RASD family member 2) | 1.03 | 1.17
N4BP3 (NEDD4 binding protein 3) | 0.62 | 0.48
PEA15 (proliferation and apoptosis adaptor protein 15) | 0.46 | 1.42
GARIN2 (golgi associated RAB2 interactor family member 2) | 0.6 | 0.71
BMS1 (BMS1 ribosome biogenesis factor) | 0.24 | 3.21
SCAND1 (SCAN domain containing 1) | 1.13 | 0.62
